Measured values reported in US8748383B2, “Method for treating bone related diseases and calcium disorders” (Novartis AG, priority 2003, dated 2014).
Some of these results come from one statement about several compounds together. At least one structure is not confirmed: it was looked up by name or label, or the drawing left a doubt.

Assay: Absorption of delivery agent by the gastro-intestinal tract
Conditions: whether ingested in micronized or coarse form

| SMILES | absorbed by the gastro-intestinal tract |
| --- | --- |
| O=C(O)CCCCCCCNC(=O)c1cc(Cl)ccc1O [5 CNAC, N-(5-chlorosalicyloyl)-8-aminocaprylic acid] | greater than 90% |
| O=C(O)CCCCCCCNC(=O)c1ccccc1O [SNAC, N-(8-[2-hydroxybenzoyl]amino)caprylic acid] | greater than 90% |
